Patent US20100260817

The chains behind the UniProt entries cited, without tags or fusion partners. Where a name states a change or a piece, a line headed by the entry shows the natural chain unless it says otherwise.
UniProt Q04609: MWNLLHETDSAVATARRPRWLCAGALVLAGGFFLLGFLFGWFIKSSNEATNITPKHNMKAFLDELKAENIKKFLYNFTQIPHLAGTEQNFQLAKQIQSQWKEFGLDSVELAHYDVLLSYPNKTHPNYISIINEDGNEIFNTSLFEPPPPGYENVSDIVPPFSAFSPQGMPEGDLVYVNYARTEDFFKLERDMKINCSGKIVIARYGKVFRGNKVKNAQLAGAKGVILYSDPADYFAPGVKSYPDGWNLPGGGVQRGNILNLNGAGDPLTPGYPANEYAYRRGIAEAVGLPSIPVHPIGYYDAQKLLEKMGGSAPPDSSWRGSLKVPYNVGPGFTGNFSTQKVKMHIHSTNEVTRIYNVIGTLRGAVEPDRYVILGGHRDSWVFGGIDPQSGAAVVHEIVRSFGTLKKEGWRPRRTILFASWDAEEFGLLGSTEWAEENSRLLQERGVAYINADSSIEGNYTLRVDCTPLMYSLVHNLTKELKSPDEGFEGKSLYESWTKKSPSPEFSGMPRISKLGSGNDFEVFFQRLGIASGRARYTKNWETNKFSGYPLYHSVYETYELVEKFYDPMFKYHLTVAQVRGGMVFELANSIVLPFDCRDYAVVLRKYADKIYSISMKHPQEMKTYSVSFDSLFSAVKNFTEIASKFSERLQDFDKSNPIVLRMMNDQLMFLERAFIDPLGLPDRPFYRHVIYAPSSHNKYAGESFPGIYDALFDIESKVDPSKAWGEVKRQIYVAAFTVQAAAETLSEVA

Target: Prostate specific membrane antigen (PSMA) (UniProt Q04609)
Assay: activity in cells
Conditions: no depletion of Cav-1 transcript in LNCaP cells versus non-silencing control; described as non-binding mutant aptamer; protein on the cell surface; protein details: endogenous on LNCaP cells; variant of PSMA aptamer with 3' uridine tail; dose not given here

## GGGAGGACGAUGCGGAUCAGCCAUCCUUACGUCACUCCUAAUUUUUUUUUUUUUUUUUUUU [mutant PSMA aptamer (non-binding)]
  functional effect of the aptamer: not active

No signal at the amounts used counts as a negative.
